Measurements: US20170009228A1 (IMPERIAL INNOVATIONS LIMITED, priority 2014, published 2017)
For part of these data: Where a sequence shows no end group, the ends are not given. Where no end group is shown, it is not given here. [ ]: non-standard residue; d: D form. Cit = NC(=O)NCCC[C@H](N)C(=O)O

Key:
[1] = test system: RA sera; assay: IgG response to cyclic citrullinated FBG peptides in RA and control sera; assay type: binding, human; settings: positivity defined using the 95th percentile of the normal group, n=20
Source text: (A) Peptides with sequences corresponding to the amino acid sequence of FBG were designed, with the addition of cysteine residues at the amino and carboxy termini and the exchange of arginine for citrulline residues at positions identified by LC-MS/MS. (B) IgG response to citrullinated FBG peptides and arginine containing control peptides in patients with rheumatoid arthritis (RA; n=20) and healthy controls (n=20). The 95th percentile of the control sera was used to determine positivity (dashed line). Mann-Whitney U test was used to calculate p values for differences between groups (n.s.=no significant difference, *=p<0.05 and **=p<0.01, ***=p<0.001, […]).
With reference to FIG. 31, the antibody response in 20 RA and 20 control sera to 6 cyclic FBG peptides, encompassing citrulline residues was evaluated.

[2] = peptide made by a vendor; settings: whole synthesis
[3] = test system: serum from RA patients; assay: Western blot of citrullinated tenascin-C probed with serum from RA patients or healthy controls; assay type: binding, human
Procedure: SDS PAGE of Citrullinated Proteins 33.33 ul of citrullination reaction (cit-TNC alone or cit-TNC combined with cit-FBG) was loaded into NuPAGE® Novex 4-12% Bis-tris gel using a 1.0 mm 2D single lane well.
After electrophoresis proteins were transferred to nitrocellulose and the membrane blocked and then cut into strips (up to 8 strips ˜0.7 cm wide). Strips were incubated with serum from RA patients or normal healthy individuals diluted 1:100 in 5% milk TBS-tween. Strips were incubated in 15 ml falcon tubes on rollers 1 h room temperature, then washed 3 ×5 min, 1×15 min in tubes with TBS-Tween. Strips were then incubated with secondary mouse anti-human Ig 1:5000 1 h in room temperature, then washed 3×5 min, 1×15 min in the dish with TBS-tween. Strips were finally incubated with ECL reagents and exposed to film.

Substance | RA patients positive for the epitope [1] | healthy controls exhibiting positivity [1] | outcome [2] | RA patients reacting by Western blot ([3]; 50 RA patients, serum 1:100) [%] | controls reacting by Western blot ([3]; 50 normal healthy controls)
CEMKL-Cit-PSNF-Cit-NLEGRRKRC [CIT209/214] | ~20% | none | – | – | –
CEMKLRPSNFRNLEG-Cit-Cit-KRC [CIT219/220] | ~30% | none | – | – | –
CVFLRRKNG[Cit]ENFYQNWC (cysteine pairing not given here) [CIT55] | about 35% | none | – | – | –
RSFSTFDKDTDSAITNCALSYKGAFWYRN | – | – | The facility was unable to synthesize peptide 7 | – | –
citrullinated tenascin-C: purified human recombinant tenascin-C citrullinated in vitro with PAD | – | – | – | 20 | none
